Assay results reported in US20210284695A1, “FOLDED AND PROTEASE-RESISTANT POLYPEPTIDES” (UNIVERSITY OF WASHINGTON, priority 2017, published 2021).
Part of at least one peptide drawing is inferred or uncertain, most often the ends. Where no end group is shown, it is not given here.

Legend:
[1] = assay type: physicochemical; details: for thermal melting by CD (CD spectrum at 95° C.): purified protein, PBS pH 7.4, 95° C.
Protocol: FIG. 2. Biophysical characterization of designed minimal proteins. (A) Design models and NMR solution ensembles for designed minimal proteins. (B) Far-ultraviolet circular dichroism (CD) spectra at 25° C. (black), 95° C. (red), and 25° C. following melting (blue). (C) Thermal melting curves measured by CD at 220 nm. Melting temperatures determined using the derivative of the curve. (D) Chemical denaturation in GuHCl measured by CD at 220 nm and 25° C. Unfolding free energies determined by fitting to a two-state model (red solid line).
Far-ultraviolet CD measurements were carried out with an AVIV spectrometer, model 420. Wavelength scans were measured from 260 to 195 nm at 25 and 95° C. Temperature melts monitored dichroism signal at 220 nm in steps of 2° C./minute with 30 s of equilibration time. Wavelength scans and temperature melts were performed using 0.35 mg/ml protein in PBS buffer (20 mM NaPO4, 150 mM NaCl, pH 7.4) with a 1 mm path-length cuvette. Chemical denaturation experiments with guanidinium hydrochloride (GuHCl) were performed using an automatic titrator with a protein concentration of 0.035 mg/ml and a 1 cm path-length cuvette with stir bar. The GuHCl concentration was determined by refractive index in PBS buffer. The denaturation process monitored dichroism signal at 220 nm in steps of 0.2 M GdmCl with 1 minute mixing time for each step, at 25° C. Protein concentrations were determined by absorbance at 280 nm measured using a NanoDrop™ spectrophotometer (Thermo Scientific) using predicted extinction coefficients (65). Protein concentrations for designs lacking aromatic amino acids were measured by Qubit™ protein assay (ThermoFisher Scientific).
Melting temperatures were determined by first smoothing the data with a Savitsky-Golay filter of order 3, then approximating the smoothed data with a cubic spline to compute derivatives. The reported Tm is the inflection point of the melting curve. […]

[2] = Chemical denaturation in GuHCl measured by CD at 220 nm; assay type: physicochemical; details: 25° C.

Compound | refolding after thermal denaturation ([1]; CD, 25° C. following melting) | ΔGunf ([2]; two-state fit) | thermal melting by CD (CD spectrum at 95° C.) [1] | Cm [2]
CC[C@H](C)[C@H](NC(=O)CNC(=O)[C@H](CC(N)=O)NC(=O)[C@H](CCCCN)NC(=O)[C@H](CCCNC(=N)N)NC(=O)[C@H](C)NC(=O)[C@H](CCC(=O)O)NC(=O)[C@H](CCCCN)NC(=O)[C@H](CCC(=O)O)NC(=O)[C@@H](NC(=O)[C@H](CCC(=O)O)NC(=O)[C@H](CO)NC(=O)[C@H](CCCCN)NC(=O)[C@H](CC(=O)O)NC(=O)[C@H](CC(C)C)NC(=O)CNC(=O)[C@H](CCCCN)NC(=O)[C@H](CC(N)=O)NC(=O)[C@H](CC(C)C)NC(=O)[C@H](CC(C)C)NC(=O)[C@H](CCCCN)NC(=O)[C@H](CCCCN)NC(=O)[C@@H](NC(=O)[C@@H](NC(=O)[C@H](CCCCN)NC(=O)[C@H](CCCCN)NC(=O)[C@H](CCCCN)NC(=O)[C@H](CCCCN)NC(=O)[C@H](CC(=O)O)NC(=O)[C@@H]1CCCN1)[C@@H](C)CC)C(C)C)C(C)C)C(=O)N[C@@H](CO)C(=O)N[C@@H](CC(=O)O)C(=O)N[C@@H](CC(=O)O)C(=O)N[C@H](C(=O)N[C@H](C(=O)N[C@@H](CCC(=O)O)C(=O)N[C@@H](CCC(N)=O)C(=O)N[C@@H](C)C(=O)N[C@@H](Cc1ccc(O)cc1)C(=O)N[C@@H](CCCCN)C(=O)N[C@@H](CCC(=O)O)C(=O)N[C@@H](Cc1c[nH]c2ccccc12)C(=O)N[C@@H](CC(C)C)C(=O)O)C(C)C)[C@@H](C)CC [HHH_rd1_0005] | did not refold and showed signs of aggregation |  |  | 
TQTQEFDNEEEARKAEKELRKENRRVTVTQENGRWRVTWD [EHEE_rd1_0284] |  | 4.7 kcal/mol | only partially melted at 95 °C | 
TTRYRFTDEEEARRAAKEWARRGYQVHVTQNGTYWEVEVR [EHEE_rd2_0005] |  |  | essentially unchanged at 95 °C | above 5 M GuHCl
